Melanoma cell counts after drug treatment

Data from the primary screen of doi:10.1371/journal.pone.0140310, rounded.

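The test systems are human melanoma cell lines, treated with a pair of drugs for 72 h and then stained and imaged. Each value is the count of nuclei relative to DMSO-treated wells, in %, so that 100 equals the control. Every drug was used at one fixed concentration, the higher of two screened. No replicate spread is given; individual values may be noisy.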 An unselected part of the screen is shown.

First drug in all entries: fludarabine, 1 µM, Nc1nc(F)nc2c1ncn2[C@@H]1O[C@H](CO)[C@@H](O)[C@@H]1O

{"second drug": "Cc1ccc(NC(=O)c2cccc(N(C)C)c2)cc1NC(=O)c1ccc(O)cc1 at 10 µM", "WM451Lu": 93.6, "COLO 792": 74.5, "WM3619": 93.7, "COLO 800": 75.7, "COLO 829": 104, "C32": 78.6}
{"second drug": "C/C(O)=C(\\C#N)C(=O)Nc1cc(Br)ccc1Br at 10 µM", "WM451Lu": 75.7, "COLO 792": 71.5, "WM3619": 87.1, "COLO 800": 105, "COLO 829": 103, "C32": 90.5}
{"second drug": "COc1cc(N2CCC(N3CCN(C)CC3)CC2)ccc1Nc1ncc(Cl)c(Nc2ccccc2S(=O)(=O)C(C)C)n1 at 0.4 µM", "WM451Lu": 71.2, "COLO 792": 65.6, "WM3619": 91.0, "COLO 800": 65.7, "COLO 829": 89.1, "C32": 84.7}
{"second drug": "NC1(c2ccc(-c3nc4ccn5c(=O)[nH]nc5c4cc3-c3ccccc3)cc2)CCC1 at 2 µM", "WM451Lu": 76.0, "COLO 792": 45.7, "WM3619": 84.9, "COLO 800": 79.8, "COLO 829": 80.9, "C32": 79.2}
{"second drug": "O=C(Nc1cc(C(F)(F)F)cc(C(F)(F)F)c1)c1cc(Cl)ccc1O at 0.08 µM", "WM451Lu": 126, "COLO 792": 70.6, "WM3619": 111, "COLO 800": 39.9, "COLO 829": 96.9, "C32": 101}
{"second drug": "OCCn1cc(-c2cnc3nnn(Cc4ccc5ncccc5c4)c3n2)cn1 at 5 µM", "WM451Lu": 69.5, "COLO 792": 55.1, "WM3619": 76.6, "COLO 800": 54.5, "COLO 829": 99.6, "C32": 82.4}
{"second drug": "CCN(CC)CCCCNc1ncc2cc(-c3cc(OC)cc(OC)c3)c(NC(=O)NC(C)(C)C)nc2n1 at 0.5 µM", "WM451Lu": 62.8, "COLO 792": 62.3, "WM3619": 80.7, "COLO 800": 92.2, "COLO 829": 103, "C32": 94.4}
{"second drug": "CCN(CC)CCNC(=O)c1c(C)[nH]c(/C=C2\\C(=O)Nc3ccc(F)cc32)c1C at 2 µM", "WM451Lu": 94.2, "COLO 792": 43.1, "WM3619": 87.8, "COLO 800": 57.9, "COLO 829": 124, "C32": 78.5}
{"second drug": "Cn1cnc2c(F)c(Nc3ccc(Br)cc3Cl)c(C(=O)NOCCO)cc21 at 0.075 µM", "WM451Lu": 67.1, "COLO 792": 80.7, "WM3619": 58.2, "COLO 800": 83.2, "COLO 829": 107, "C32": 85.2}
{"second drug": "COC(=O)c1sccc1S(=O)(=O)Nc1ccc(Nc2ccccc2)cc1OC at 5 µM", "WM451Lu": 76.3, "COLO 792": 59.5, "WM3619": 82.8, "COLO 800": 89.3, "COLO 829": 87.2, "C32": 92.4}
{"second drug": "Oc1nc(-c2ccc(C(F)(F)F)cc2)nc2c1CSCC2 at 10 µM", "WM451Lu": 97.5, "COLO 792": 67.1, "WM3619": 94.2, "COLO 800": 108, "COLO 829": 74.3, "C32": 91.0}
{"second drug": "Nc1ccn([C@@H]2O[C@H](CO)[C@@H](O)C2(F)F)c(=O)n1 at 0.002 µM", "WM451Lu": 46.5, "COLO 792": 48.9, "WM3619": 39.5, "COLO 800": 28.7, "COLO 829": 48.6, "C32": 77.9}

The last 2 entries again:

| Second drug | WM451Lu | COLO 792 | WM3619 | COLO 800 | COLO 829 | C32 |
|---|---|---|---|---|---|---|
| Oc1nc(-c2ccc(C(F)(F)F)cc2)nc2c1CSCC2 at 10 µM | 97.5 | 67.1 | 94.2 | 108 | 74.3 | 91.0 |
| Nc1ccn([C@@H]2O[C@H](CO)[C@@H](O)C2(F)F)c(=O)n1 at 0.002 µM | 46.5 | 48.9 | 39.5 | 28.7 | 48.6 | 77.9 |